Measured values published in patent publication US20080220446A1, “Method for Detecting and/or Removing Protein and/or Peptide Comprising a Cross-Beta Structure From an Aqueous Solution Comprising a Protein” (priority 2005, published 2008).
These are yes or no findings as the source states them, for the method shown. Some results given as binding are weak or reduced against the parent protein; the word gives no strength.

Amino acid sequences for entries named in this document (tags omitted). Residues count along the entry.
UniProt P01012, residues 2-386: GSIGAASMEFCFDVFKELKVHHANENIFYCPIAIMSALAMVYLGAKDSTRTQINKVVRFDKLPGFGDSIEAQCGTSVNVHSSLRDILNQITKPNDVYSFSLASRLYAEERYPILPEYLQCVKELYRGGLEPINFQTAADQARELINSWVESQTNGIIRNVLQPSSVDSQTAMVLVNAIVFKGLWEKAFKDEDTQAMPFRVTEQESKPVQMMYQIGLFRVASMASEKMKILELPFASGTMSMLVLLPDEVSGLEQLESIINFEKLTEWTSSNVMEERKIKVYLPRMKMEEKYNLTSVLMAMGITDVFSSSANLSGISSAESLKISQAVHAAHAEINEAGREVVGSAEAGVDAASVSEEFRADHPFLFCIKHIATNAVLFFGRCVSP
UniProt P00750, residues 36-562: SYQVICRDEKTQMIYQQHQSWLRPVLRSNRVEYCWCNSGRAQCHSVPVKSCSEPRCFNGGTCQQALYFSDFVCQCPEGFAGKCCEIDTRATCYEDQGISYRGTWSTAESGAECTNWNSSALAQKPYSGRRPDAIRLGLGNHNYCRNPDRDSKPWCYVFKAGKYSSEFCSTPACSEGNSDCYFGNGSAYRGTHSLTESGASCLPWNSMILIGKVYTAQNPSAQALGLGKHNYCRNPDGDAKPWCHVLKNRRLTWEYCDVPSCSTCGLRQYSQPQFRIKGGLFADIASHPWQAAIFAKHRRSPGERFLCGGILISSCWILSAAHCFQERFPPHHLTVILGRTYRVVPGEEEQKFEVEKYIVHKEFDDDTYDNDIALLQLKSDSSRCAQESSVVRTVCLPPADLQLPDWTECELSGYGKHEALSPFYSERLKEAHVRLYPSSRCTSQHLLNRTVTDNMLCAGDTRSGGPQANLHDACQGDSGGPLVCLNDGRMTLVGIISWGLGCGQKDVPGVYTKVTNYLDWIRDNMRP

Target: heat-denatured ovalbumin (dOVA) (UniProt P01012)
Assay: ELISA, DOVA coated at 1 µg/ml, 80 nM tPA, with or without ellagic acid

- binding: binds
Substance: tissue-type plasminogen activator (tPA) (from UniProt P00750 36-562) (enzyme)
